Data reported in PubChem BioAssay AID1259415 (National Center for Advancing Translational Sciences (NCATS), 2018).
Out of some 410,000 compounds screened, about 18,000 (4.4%) were called active. Inconclusive means that the source gave no clear call. Such entries were picked first, then a sample of the others. Rule as the data show it: active = activity change below about -60%; inconclusive = no clear call, values can overlap the other calls; inactive = above about -39%.

Experiment: qHTS Assay for inhibitors of the human cytomegalovirus (HCMV)
Conditions: HFF cells, HCMV-luciferase reporter, 72 h; at 57.5 µM; hits give low values
Outline: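 Cell-based, HFFs, 1000 cells/well, 16 h 37C; cpds in DMSO + HCMV-luc, MOI 1 PFU/cell; 72 h 37C; OneGlo luminescence after 5 min RT; norm. to buffer vs Salinomycin 10uM.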
% is scaled to controls: 0 for no effect and ±100 for the full control effect.

Compound | activity change, negative = inhibition
CNCC(=O)O | inconclusive: -59.2%
Cc1ccc(Cl)cc1NC(=O)c1ccc2nc(CCc3ccccc3)oc2c1 | inactive: -21.4%
COc1cc(/C=N/NC(N)=S)ccc1OCc1ccc(C)cc1 | inconclusive: -40.6%
Cc1cccc(Nc2cc(C)nc3ccccc23)c1 | inconclusive: -42.7%
O=C(CNC(=O)[C@@H]1Cc2ccccc2CN1)Nc1ccc2c(c1)OCCO2 | inconclusive: -51.7%
COc1ccc(C(=O)COC(=O)c2cc(S(=O)(=O)NCc3ccccc3)ccc2O)cc1 | inconclusive: -43.6%
CCOc1cc(CNCc2ccncc2)cc(Br)c1OCc1ccc(F)cc1 | active: -65%
Cc1nc(C)c(C(=O)NNC(=O)c2ccc(Br)cc2)s1 | inconclusive: -44.3%
O=C(NNc1ncnc2c1cnn2-c1ccccc1)c1ccco1 | inconclusive: -43.7%
CCOC(=O)CSc1nc2sc3c(c2c(=O)n1-c1ccccc1)CCN(C(C)C)C3 | inconclusive: -44%
CCc1cc(=O)[nH]c(SCC(=O)NCC2CCCO2)n1 (stereo unspecified) | inconclusive: -43.1%
CC/C(=N/OC(=O)c1cccc(C)c1)C(=O)c1cccs1 | inactive: 11.9%
O=C(Cc1c(F)cccc1Cl)NC1CCN(Cc2ccccc2)CC1 | inconclusive: -45.5%
COc1ccc(OC)c(NC(=O)c2cccc(C)c2[N+](=O)[O-])c1 | inconclusive: -48.8%
CCOC(=O)c1c(C)[nH]c(C)c1S(=O)(=O)N(C)CC(=O)N1CCN(c2cccc(Cl)c2)CC1 | inconclusive: -40.1%
CCOc1ccc(C2(C)CC(=O)N(C)C2=O)cc1 (stereo unspecified) | inactive: 9.81%
CC(C)n1c(NCCc2ccccc2)nc2c1c(=O)n(C)c(=O)n2C | active: -87.4%
Cc1ccc(C2CCN(C(=S)NC3CCCCC3)C2)cc1 (stereo unspecified) | inconclusive: -53.6%
Cc1ccc(NC(=O)Cn2ncn3c(cc4ccccc43)c2=O)cc1C | inactive: 7.05%
Clc1cccc(-n2ncc3c(N4CCCCCC4)ncnc32)c1 | inconclusive: -42%
Cn1cc([N+](=O)[O-])c(C(=O)Nc2ccc(Br)cn2)n1 | active: -64.8%
Cc1ccc(NC(=O)CSC2=C(C#N)C(c3ccco3)C3=C(CC(C)(C)CC3=O)N2)cc1 (stereo unspecified) | inconclusive: -44.9%
Nc1cc(=O)[nH]c(SCC(=O)NNC(=O)Cc2ccccc2)n1 | inconclusive: -47.8%
Cc1cccc(OCC(=O)Nc2ccc(N3CCCC3)cc2)c1C | inactive: -22.4%
COc1cccc(/C=N/NC(=O)C(=O)N2CCCC2)c1OC | inactive: -10.9%
Cc1cccc(NC(=O)Nc2cccc(C#N)c2)n1 | inactive: -24.8%

Shown as tab-separated lines: part of the list above
Compound	activity change, negative = inhibition
Cc1ccc(NC(=O)Cn2ncn3c(cc4ccccc43)c2=O)cc1C	inactive: 7.05%
Clc1cccc(-n2ncc3c(N4CCCCCC4)ncnc32)c1	inconclusive: -42%
Cn1cc([N+](=O)[O-])c(C(=O)Nc2ccc(Br)cn2)n1	active: -64.8%
Cc1ccc(NC(=O)CSC2=C(C#N)C(c3ccco3)C3=C(CC(C)(C)CC3=O)N2)cc1 (stereo unspecified)	inconclusive: -44.9%
Nc1cc(=O)[nH]c(SCC(=O)NNC(=O)Cc2ccccc2)n1	inconclusive: -47.8%
